# Results are given in words; binding and its absence hold for the method and conditions named. Binding seen in cells or lysates may run through a third protein. Binding calls can cover weak binding; strength is not graded here. Tags and fused reporters may be left off the sequences shown.
# Biological target: T1, 3×FLAG-GFP-short Osk (Drosophila) (UniProt P25158)
# T1 sequence: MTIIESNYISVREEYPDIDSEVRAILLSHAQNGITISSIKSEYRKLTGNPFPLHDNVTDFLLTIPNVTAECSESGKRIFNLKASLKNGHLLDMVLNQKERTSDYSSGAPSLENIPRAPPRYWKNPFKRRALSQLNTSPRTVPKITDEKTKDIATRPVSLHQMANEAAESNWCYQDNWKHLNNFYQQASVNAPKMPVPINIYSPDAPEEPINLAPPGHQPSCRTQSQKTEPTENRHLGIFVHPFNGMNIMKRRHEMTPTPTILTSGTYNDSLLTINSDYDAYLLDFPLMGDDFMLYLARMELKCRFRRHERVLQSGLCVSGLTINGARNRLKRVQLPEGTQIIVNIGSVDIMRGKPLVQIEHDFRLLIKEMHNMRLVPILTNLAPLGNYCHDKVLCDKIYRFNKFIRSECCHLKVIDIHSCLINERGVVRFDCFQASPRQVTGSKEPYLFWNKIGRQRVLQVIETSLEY
# Assay: co-IP; anti-FLAG M2-Sepharose on ovarian lysates (25 mM HEPES pH 6.8, 150 mM KCl, 1 mM MgCl2, 1% Triton X-100, 250 mM sucrose), overnight at 4°C, eluted with 3×FLAG peptides; western blots for FLAG, Yl, Rab5, Rab7 and Rab11
substance,measurement,value
Yolkless (Drosophila (endogenous in ovaries)) (receptor),binding,binds weakly
